± gives the standard deviation. The list shows a part of the results, in another mix than the full data. The uncertainty is large for many entries.

One assay deals with MILI (PIWIL2) piRISC loaded with L1MC piRNA (26 nt). Description: pre-steady-state target cleavage rate (min^-1); MIWI and MILI are mouse PIWI proteins and EfPiwi is from a freshwater sponge; tags in brackets are library labels; higher = faster piRNA-guided slicing of the target. The note with it: guide: L1MC piRNA 5'p-UAACUAAAUACUAUGCAAGCUGUAGG; auxiliary factor: 500 nM mouse GTSF1. The method, boiled down: (§1)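 Using HEPES–potassium acetate buffer at 33 °C, 1 nM active affinity-purified piRISC with a single synthetic guide was mixed with 0.1 nM transcribed, DNA-blocked target RNA library for 0–8 or 0–960 min, with or without 500 nM GTSF1 partner protein. Uncleaved targets were sequenced and normalised to depth and to weakly complementary targets, and three trials were pooled with k3 capped at 0.0001 min^-1. A burst-and-steady-state fit gave the pre-steady-state cleavage rate.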
Consider UCCUGGAACAGCUUGCAUAGUAUUUAGUUUA, for which the “pre-steady-state target cleavage rate” value amounted to 0.321 ± 0.018.

On to UCCUGGAUGUCGAACCAUAGUAUUUAGUCA, for which the “pre-steady-state target cleavage rate” value is 0.000728 ± 0.0086.

Turning to UCCUGGAUCAGCUUGGCAUAGUAUUUAGUUA, the “pre-steady-state target cleavage rate” value was 0.3 ± 0.061.

The same assay, now with this note: guide: L1MC piRNA 5'p-UAACUAAAUACUAUGCAAGCUGUAGG; auxiliary factor: none (no GTSF1).
For UCCUCCUUCAGCUUGCAUAGUAUUUAGAAA, the “pre-steady-state target cleavage rate” value was determined as 0.00112 ± 0.0048.

For the sequence UCCUGGUACAGCUUGCAUUGUAUUUUGUUA, the “pre-steady-state target cleavage rate” value stood at 0.0017 ± 0.0055.

Consider UCCUCCUACAGCUUGCAUAGUUUUUAGUAA, for which the “pre-steady-state target cleavage rate” value came out at 0.00267 ± 0.0027.

As for UCCUGGUACAGCUUGCAUAGUAUUUAGCUUA, the “pre-steady-state target cleavage rate” value was found to be 0.00177 ± 0.0057.

UCCUGGUACAGCUUGCAUAGUAUUUAGAAA: the “pre-steady-state target cleavage rate” value stood at 0.00238 ± 0.0029.

Consider UCCUGCUAGAGCUUGCAUAGAAUUUAGUUA, for which the “pre-steady-state target cleavage rate” value stood at 0.00209 ± 0.0029.

Consider UCCUGGAUGUGCUUGCAUAGUAUUUACUUA, for which the “pre-steady-state target cleavage rate” value is 0.00229 ± 0.0033.

As for UCCUGCUACACCUUGCAUACUAUUUAGUUA, the “pre-steady-state target cleavage rate” value worked out at 0.00195 ± 0.004.

Consider UCCUGGAACAGCUAGCAUAGUAUUUACUUA, for which the “pre-steady-state target cleavage rate” value was determined as 0.00207 ± 0.0033.

Take UCCUGGUACAGCUUGCAUAGUAUUUCGUUA: the “pre-steady-state target cleavage rate” value was found to be 0.00216 ± 0.0048.

With UCCUGGAACAGCUUGCUUAGUAUUUAGUAA, the “pre-steady-state target cleavage rate” value came to 0.00178 ± 0.0048.

As for UCCUGCUACACCUUGCAUAGUAUUUAGAAA, the “pre-steady-state target cleavage rate” value amounted to 0.00119 ± 0.0061.

In a further assay the test system is MIWI (PIWIL1) piRISC loaded with L1MC piRNA (30 nt). The description is as above. The note with it: guide: L1MC piRNA 5'p-UAACUAAAUACUAUGCAAGCUGUAGGUCCU; auxiliary factor: 500 nM mouse GTSF1. The method in brief: as §1
As for UCCUGGAUGUCGAUGGAUAGUAUUUAGUUA, the “pre-steady-state target cleavage rate” value worked out at 0.00096 ± 0.0088.

For UCCUGCUACAGCUUGCAUAGUGUUUAGUUA, the “pre-steady-state target cleavage rate” value was determined as 0.648 ± 0.045.

Regarding UCCUGCUACAGCUUGCAUAGUCAUUUAGUUA, the “pre-steady-state target cleavage rate” value is 0.0744 ± 0.02.

UCCUGGAUGAGCUUGCAUUCUAUUUAGAAA: the “pre-steady-state target cleavage rate” value is 0.00163 ± 0.0091.

Consider UCCUGGAUGUGCUUGCAUAGUUUUAGUUA, for which the “pre-steady-state target cleavage rate” value amounted to 0.0028 ± 0.0052.

On to UCCUGGAUGUCGAUGCAUAUGUAUUUAGUUA, for which the “pre-steady-state target cleavage rate” value is 0.000186 ± 0.043.

UCCUGGAUGUCGUUGCAUAGUAUUUAGAUUA: the “pre-steady-state target cleavage rate” value stood at 0.00118 ± 0.007.

Take UCCUGGAUGUGCUUGCAUAGUAUUUAGGUUA: the “pre-steady-state target cleavage rate” value amounted to 0.191 ± 0.02.

As to UCCUGGAUCAGCUUGCAUAUGUAUUUAGUUA, the “pre-steady-state target cleavage rate” value stood at 0.00291 ± 0.005.

On to UCCUGGAUCAGCUUGCAUGAGUAUUUAGUUA, for which the “pre-steady-state target cleavage rate” value was found to be 0.00199 ± 0.0063.

For UCCUGGAUGAGCUUGCAUGGUAUUUAGUUA, the “pre-steady-state target cleavage rate” value stood at 0.743 ± 0.043.

Take UCCUGGAUGUCCUUUCAUAGUAUUUAGUUA: the “pre-steady-state target cleavage rate” value turned out to be 0.0134 ± 0.004.

For the sequence UCCUGGAUGUCGAAGCAAAGUAUUUAGUUA, the “pre-steady-state target cleavage rate” value is 0.000802 ± 0.012.

As to UCCUGGAUCACGUUGCAUAGUAUUUAGUAA, the “pre-steady-state target cleavage rate” value turned out to be 0.0198 ± 0.0044.

For UCCUGGAUGUGCUUGCUAGUAUUUAGUUA, the “pre-steady-state target cleavage rate” value was determined as 0.00196 ± 0.0053.

Regarding UCCUGGAUCAGCAUUGCAUAGUAUUUAGUUA, the “pre-steady-state target cleavage rate” value was found to be 0.875 ± 0.036.

On to UCCUGGAACAGCUUGCAAUGUAUUUAGUAA, for which the “pre-steady-state target cleavage rate” value amounted to 0.146 ± 0.018.

UCCUGGAUGUCGAUGCUUAGUAUUUAGUUA: the “pre-steady-state target cleavage rate” value turned out to be 0.000734 ± 0.014.

For UCCUGGAUGAGCUUGCAUUGUAUUUACAAA, the “pre-steady-state target cleavage rate” value was determined as 0.00257 ± 0.0048.

Consider UCCUGGAUGUCGUUGCAGAGUAUUUAGUUA, for which the “pre-steady-state target cleavage rate” value was 0.00128 ± 0.008.

For UCCUGGAACAGGUUGCAUAGUUUUUAGUUA, the “pre-steady-state target cleavage rate” value amounted to 0.167 ± 0.016.

On to UCCUGGUACAGCUUCGUUAGUAUUUACAAA, for which the “pre-steady-state target cleavage rate” value came out at 0.00102 ± 0.01.

As to UCCUGGAUGUCCUUGCAUAGGUAUUUAGUUA, the “pre-steady-state target cleavage rate” value was 0.00285 ± 0.004.

Take UCCUGGAACAGCUUGCUUUGUAUUUAGUUA: the “pre-steady-state target cleavage rate” value came to 0.0971 ± 0.011.

On to UCCUGGUAGACCUUGCAUAGUAUUUAGUUA, for which the “pre-steady-state target cleavage rate” value turned out to be 0.46 ± 0.042.
